Reference: the supplement of paper PMC10849652
Some of the results follow.

Sequences of proteins named here, by UniProt entry; tags and fusion partners are left off. A change or cut given only in a name is not applied to a line headed by its entry.
UniProt Q9Y2U5: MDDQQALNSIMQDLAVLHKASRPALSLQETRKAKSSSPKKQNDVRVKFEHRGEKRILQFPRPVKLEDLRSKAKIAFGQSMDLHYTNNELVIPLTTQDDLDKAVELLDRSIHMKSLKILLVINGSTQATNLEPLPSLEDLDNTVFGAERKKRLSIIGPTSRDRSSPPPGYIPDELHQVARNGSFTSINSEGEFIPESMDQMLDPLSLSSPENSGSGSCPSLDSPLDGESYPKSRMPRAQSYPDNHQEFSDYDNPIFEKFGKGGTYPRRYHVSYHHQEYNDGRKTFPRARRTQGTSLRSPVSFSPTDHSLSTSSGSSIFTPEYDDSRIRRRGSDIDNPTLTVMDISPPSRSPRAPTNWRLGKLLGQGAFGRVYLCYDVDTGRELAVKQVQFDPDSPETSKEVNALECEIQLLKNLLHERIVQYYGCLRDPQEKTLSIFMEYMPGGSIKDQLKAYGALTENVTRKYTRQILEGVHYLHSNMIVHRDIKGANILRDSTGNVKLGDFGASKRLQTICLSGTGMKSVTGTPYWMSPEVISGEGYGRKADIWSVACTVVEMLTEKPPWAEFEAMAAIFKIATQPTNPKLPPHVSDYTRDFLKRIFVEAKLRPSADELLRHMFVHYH
UniProt Q8N5G2: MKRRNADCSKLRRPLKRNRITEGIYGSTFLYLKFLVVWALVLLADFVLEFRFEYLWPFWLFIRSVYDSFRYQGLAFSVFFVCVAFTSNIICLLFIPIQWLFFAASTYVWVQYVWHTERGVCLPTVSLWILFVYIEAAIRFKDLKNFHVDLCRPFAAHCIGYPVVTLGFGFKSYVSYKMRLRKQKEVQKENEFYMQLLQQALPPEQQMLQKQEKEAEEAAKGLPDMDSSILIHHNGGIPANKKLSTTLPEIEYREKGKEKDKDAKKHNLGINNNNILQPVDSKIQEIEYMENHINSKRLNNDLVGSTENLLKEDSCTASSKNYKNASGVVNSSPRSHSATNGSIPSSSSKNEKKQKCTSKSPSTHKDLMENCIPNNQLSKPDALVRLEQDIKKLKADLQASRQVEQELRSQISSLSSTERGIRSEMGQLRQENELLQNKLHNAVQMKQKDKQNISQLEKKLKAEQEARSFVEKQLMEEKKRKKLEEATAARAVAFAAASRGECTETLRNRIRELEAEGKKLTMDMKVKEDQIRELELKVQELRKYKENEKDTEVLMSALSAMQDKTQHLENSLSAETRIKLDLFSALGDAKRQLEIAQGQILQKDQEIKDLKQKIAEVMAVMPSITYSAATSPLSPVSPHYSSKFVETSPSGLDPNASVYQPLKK
UniProt P46821: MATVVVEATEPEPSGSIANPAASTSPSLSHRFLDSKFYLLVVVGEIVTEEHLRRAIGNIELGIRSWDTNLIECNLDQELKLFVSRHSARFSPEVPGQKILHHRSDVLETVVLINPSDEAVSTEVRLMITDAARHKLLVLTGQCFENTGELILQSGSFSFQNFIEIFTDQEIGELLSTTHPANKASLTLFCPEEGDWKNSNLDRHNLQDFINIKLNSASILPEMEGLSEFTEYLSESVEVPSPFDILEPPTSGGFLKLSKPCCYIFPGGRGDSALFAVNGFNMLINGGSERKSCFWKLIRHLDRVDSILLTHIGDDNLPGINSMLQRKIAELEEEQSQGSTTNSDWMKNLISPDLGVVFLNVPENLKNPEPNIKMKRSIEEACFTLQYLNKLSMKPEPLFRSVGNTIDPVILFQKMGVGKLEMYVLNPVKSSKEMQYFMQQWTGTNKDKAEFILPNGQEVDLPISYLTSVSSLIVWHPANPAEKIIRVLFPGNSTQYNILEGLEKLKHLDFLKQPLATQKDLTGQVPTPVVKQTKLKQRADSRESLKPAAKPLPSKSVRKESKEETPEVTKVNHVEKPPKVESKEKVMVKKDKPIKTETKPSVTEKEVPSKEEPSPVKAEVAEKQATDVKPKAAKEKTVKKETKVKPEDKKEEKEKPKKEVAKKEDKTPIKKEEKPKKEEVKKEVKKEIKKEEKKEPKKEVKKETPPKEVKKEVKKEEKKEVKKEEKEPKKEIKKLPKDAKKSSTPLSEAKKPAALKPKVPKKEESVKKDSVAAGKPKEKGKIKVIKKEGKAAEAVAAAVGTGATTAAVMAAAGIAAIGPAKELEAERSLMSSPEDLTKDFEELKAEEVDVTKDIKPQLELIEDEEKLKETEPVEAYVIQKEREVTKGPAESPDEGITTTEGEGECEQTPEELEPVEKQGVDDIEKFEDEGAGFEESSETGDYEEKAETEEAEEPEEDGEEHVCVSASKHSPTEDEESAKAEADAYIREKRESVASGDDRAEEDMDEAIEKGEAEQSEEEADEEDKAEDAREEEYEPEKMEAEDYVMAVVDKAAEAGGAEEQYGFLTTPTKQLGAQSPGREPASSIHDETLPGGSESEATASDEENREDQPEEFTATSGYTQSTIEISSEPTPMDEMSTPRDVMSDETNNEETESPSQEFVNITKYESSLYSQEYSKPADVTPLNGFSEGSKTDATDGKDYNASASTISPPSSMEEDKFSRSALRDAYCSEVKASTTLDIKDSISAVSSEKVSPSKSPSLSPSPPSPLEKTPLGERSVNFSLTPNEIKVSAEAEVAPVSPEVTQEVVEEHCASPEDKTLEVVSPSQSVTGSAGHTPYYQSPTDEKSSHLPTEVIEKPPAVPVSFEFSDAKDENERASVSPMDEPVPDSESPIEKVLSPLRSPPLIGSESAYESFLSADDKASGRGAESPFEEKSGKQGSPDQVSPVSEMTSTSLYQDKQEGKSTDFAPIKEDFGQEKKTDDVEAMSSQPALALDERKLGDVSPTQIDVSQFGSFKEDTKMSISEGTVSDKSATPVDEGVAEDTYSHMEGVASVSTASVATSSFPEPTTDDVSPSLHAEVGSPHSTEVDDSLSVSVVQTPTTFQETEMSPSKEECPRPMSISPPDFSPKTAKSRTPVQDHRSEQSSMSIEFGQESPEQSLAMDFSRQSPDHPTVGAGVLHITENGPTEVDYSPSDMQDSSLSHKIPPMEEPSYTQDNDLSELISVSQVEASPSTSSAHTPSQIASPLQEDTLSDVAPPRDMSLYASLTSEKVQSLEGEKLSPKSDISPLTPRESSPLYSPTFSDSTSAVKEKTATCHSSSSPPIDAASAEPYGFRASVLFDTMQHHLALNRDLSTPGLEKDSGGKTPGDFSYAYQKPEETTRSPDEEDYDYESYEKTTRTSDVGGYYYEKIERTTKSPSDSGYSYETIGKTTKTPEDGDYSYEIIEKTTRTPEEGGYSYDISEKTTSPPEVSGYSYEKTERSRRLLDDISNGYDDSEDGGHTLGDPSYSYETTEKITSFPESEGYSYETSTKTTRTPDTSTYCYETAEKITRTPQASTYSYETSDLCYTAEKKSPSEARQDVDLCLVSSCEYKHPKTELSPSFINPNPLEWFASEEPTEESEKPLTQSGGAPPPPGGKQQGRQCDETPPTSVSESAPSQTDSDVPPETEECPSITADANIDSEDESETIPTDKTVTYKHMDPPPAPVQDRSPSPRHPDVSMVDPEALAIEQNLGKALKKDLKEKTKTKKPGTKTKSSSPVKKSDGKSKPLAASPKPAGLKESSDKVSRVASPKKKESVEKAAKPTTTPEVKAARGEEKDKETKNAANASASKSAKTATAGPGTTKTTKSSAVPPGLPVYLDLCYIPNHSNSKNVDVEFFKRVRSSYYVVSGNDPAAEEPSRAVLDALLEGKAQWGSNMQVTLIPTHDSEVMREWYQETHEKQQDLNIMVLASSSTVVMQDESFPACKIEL
UniProt Q9UKM7: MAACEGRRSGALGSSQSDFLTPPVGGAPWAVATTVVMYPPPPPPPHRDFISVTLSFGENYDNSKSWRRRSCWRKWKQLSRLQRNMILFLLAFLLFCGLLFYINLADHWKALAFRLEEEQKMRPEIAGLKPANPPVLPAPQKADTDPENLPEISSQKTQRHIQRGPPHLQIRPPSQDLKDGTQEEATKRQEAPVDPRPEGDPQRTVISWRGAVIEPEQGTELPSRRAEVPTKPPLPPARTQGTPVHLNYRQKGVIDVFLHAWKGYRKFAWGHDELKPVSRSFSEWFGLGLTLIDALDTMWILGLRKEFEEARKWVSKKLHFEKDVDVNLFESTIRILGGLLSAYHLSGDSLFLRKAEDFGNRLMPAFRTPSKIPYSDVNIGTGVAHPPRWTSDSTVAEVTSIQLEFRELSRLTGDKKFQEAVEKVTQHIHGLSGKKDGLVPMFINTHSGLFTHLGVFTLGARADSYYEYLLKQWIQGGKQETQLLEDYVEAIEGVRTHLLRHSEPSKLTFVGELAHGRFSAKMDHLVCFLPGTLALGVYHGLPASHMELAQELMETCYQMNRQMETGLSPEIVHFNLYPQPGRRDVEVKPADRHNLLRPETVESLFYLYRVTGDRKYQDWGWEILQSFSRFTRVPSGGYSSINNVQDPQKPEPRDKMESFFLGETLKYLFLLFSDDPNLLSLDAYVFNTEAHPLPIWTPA
UniProt P29966: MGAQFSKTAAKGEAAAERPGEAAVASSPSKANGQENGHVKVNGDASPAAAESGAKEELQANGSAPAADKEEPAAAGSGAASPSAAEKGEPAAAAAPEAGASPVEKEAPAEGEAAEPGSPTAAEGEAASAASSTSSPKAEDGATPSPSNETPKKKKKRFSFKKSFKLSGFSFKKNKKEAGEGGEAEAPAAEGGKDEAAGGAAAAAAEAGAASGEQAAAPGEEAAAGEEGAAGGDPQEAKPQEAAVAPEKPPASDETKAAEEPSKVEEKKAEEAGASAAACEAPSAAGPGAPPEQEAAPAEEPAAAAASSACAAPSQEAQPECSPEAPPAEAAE
UniProt Q8IZL2, whole entry, looked up: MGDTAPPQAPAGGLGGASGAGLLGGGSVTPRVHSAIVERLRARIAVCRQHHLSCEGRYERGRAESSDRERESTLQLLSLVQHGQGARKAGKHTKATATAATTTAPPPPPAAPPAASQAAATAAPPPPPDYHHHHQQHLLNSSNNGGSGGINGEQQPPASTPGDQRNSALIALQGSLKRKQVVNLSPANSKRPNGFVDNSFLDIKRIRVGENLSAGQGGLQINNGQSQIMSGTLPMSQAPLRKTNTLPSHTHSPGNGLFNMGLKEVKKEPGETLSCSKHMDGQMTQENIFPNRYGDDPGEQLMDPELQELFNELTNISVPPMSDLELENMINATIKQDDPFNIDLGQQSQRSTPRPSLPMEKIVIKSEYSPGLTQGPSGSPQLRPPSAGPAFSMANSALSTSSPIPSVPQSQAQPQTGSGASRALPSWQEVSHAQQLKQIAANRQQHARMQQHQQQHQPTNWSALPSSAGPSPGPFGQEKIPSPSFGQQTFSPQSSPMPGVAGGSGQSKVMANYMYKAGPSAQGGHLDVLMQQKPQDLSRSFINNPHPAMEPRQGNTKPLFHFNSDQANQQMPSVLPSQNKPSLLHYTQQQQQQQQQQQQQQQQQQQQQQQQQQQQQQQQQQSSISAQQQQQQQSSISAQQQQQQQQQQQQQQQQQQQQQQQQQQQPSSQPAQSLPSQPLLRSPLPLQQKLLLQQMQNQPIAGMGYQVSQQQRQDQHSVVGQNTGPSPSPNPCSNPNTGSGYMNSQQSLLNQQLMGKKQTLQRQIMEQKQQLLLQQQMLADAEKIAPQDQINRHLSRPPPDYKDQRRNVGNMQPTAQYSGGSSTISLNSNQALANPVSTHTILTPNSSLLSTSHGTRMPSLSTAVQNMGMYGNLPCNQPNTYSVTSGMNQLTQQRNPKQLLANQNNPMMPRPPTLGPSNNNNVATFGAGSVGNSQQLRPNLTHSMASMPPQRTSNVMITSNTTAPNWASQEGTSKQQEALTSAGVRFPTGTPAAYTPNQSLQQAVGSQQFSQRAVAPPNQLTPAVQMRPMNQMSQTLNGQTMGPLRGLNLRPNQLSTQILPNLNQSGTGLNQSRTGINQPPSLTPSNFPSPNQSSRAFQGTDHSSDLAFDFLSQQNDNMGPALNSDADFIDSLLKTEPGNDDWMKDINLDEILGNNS
UniProt Q9UBF1: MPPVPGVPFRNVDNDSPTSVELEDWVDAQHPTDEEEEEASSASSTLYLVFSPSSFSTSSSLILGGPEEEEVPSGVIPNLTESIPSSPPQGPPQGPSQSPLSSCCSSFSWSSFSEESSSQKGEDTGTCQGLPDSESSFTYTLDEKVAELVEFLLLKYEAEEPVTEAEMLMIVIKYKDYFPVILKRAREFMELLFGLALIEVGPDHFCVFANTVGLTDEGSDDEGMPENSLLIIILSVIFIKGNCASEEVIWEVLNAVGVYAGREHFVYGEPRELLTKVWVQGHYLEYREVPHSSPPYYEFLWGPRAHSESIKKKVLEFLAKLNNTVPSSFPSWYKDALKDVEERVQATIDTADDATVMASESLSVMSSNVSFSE
UniProt Q8IV50: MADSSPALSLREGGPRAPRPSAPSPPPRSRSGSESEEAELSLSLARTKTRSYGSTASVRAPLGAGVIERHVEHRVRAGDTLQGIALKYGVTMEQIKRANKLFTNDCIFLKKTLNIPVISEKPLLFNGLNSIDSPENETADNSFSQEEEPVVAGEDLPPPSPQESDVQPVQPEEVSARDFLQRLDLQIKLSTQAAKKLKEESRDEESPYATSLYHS

Key:
Assay in all cases: log2 fold change, soluble protein after heating vs DMSO (PISA); higher = thermal stabilisation; K562 lysate, 10 uM; active = over 0.2 and 3.5 SD of the protein, either way, in both replicates (recomputed)
[1] = compound: NCC(=O)Nc1ccc(-n2nc(C(F)(F)F)cc2-c2ccc3c(ccc4ccccc43)c2)cc1
How it was run: (§1)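 K562 pellets were dounce-homogenised in PBS pH 7.4 containing 1 mM MgCl2, and the crude extract, at 1 mg/mL protein, was exposed to 10 μM compound for 30 min. Aliquots were heated for 3 min across 48°C-58°C, pooled, brought to 0.5% NP-40 at 4°C and spun at 21,000xg for 90 min, with the supernatant taken as soluble protein. TMTpro 16plex LC-MS/MS with equalised channel sums quantified that protein. Values are log-two fold changes in thermal stability relative to solvent controls, taken from duplicates.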

vorinostat = compound: O=C(CCCCCCC(=O)Nc1ccccc1)NO [vorinostat]
How it was run: as §1

silmitasertib = compound: O=C(O)c1ccc2c(c1)nc(Nc1cccc(Cl)c1)c1ccncc12 [silmitasertib]
How it was run: as §1

[2] = compound: O=C1NC(=O)C(c2cnc3ccccn23)=C1c1cn2c3c(cc(F)cc13)CN(C(=O)N1CCCCC1)CC2
How it was run: as §1

entospletinib = compound: c1cn2cc(-c3ccc4cn[nH]c4c3)nc(Nc3ccc(N4CCOCC4)cc3)c2n1 [entospletinib]
How it was run: as §1

Measured: log2 fold change

MAPRE3 isoform 2 (UniProt Q9UPY8)
inactive: [1] 0.113 | vorinostat -0.113 | silmitasertib 0.123 | [2] 0.086

MACF1, A0A0A6YYJ5
inactive: [1] -0.196 | vorinostat -0.061 | silmitasertib -0.008 | [2] -0.002 | entospletinib -0.035

MAPRE2 (UniProt Q15555)
inactive: [1] -0.063 | vorinostat 0.045 | silmitasertib -0.051 | [2] -0.016 | entospletinib 0.038

MAP3K2 (UniProt Q9Y2U5)
inactive: [1] 0.435 | vorinostat -0.016 | silmitasertib -0.008 | [2] 0.087 | entospletinib 0.005

MAP4K5 (UniProt Q9Y4K4)
inactive: [1] -0.072 | vorinostat -0.218 | silmitasertib -0.008 | [2] -0.07 | entospletinib 0

MAEA (UniProt Q7L5Y9)
inactive: [1] -0.056 | vorinostat -0.123 | silmitasertib 0.036 | [2] 0.058 | entospletinib 0.021

MACO1 (UniProt Q8N5G2)
inactive: [1] 0.081 | vorinostat 0.028 | silmitasertib -0.003 | [2] -0.003 | entospletinib 0.005

MAT2A (UniProt P31153)
inactive: [1] 0.007 | vorinostat 0.067 | silmitasertib 0.03 | [2] -0.01 | entospletinib 0

MAPT isoform 7 (UniProt P10636)
inactive: [1] 0.118

MAP3K3 isoform 2 (UniProt Q99759)
inactive: [1] 0.116 | vorinostat -0.011 | silmitasertib -0.142 | [2] -0.035 | entospletinib 0.066

MARVELD1 (UniProt Q9BSK0)
inactive: [1] 0.006 | vorinostat 0.078 | silmitasertib -0.02

MAPK12 (UniProt P53778)
inactive: [1] 0 | vorinostat 0.181 | silmitasertib -0.027 | [2] -0.067 | entospletinib -0.027

MAGED1 isoform 2 (UniProt Q9Y5V3)
inactive: [1] 0.018 | vorinostat 0.005 | silmitasertib -0.015 | [2] 0.081

MAP2K4 isoform 2 (UniProt P45985)
inactive: [1] -0.119 | vorinostat -0.216 | silmitasertib 0.023 | [2] 0.013 | entospletinib 0.028

MAFF (UniProt Q9ULX9)
inactive: [1] 0.093 | vorinostat 0.01 | silmitasertib -0.153 | [2] -0.163 | entospletinib 0.083

MAP7 (UniProt Q14244)
inactive: [1] 0.063 | vorinostat -0.015 | silmitasertib 0.113 | [2] -0.112 | entospletinib 0.001

LYPLA2 (UniProt O95372)
inactive: [1] -0.127 | vorinostat 0.035 | silmitasertib -0.012 | [2] 0.073 | entospletinib -0.071

MAP1B (UniProt P46821)
inactive: [1] 0.008 | vorinostat 0.053 | silmitasertib -0.013 | [2] -0.011 | entospletinib 0

MARCHF5 (UniProt Q9NX47)
inactive: [1] 0.087 | vorinostat 0.172 | silmitasertib -0.023 | [2] -0.041 | entospletinib -0.013

LYRM4 (UniProt Q9HD34)
inactive: [1] 0.01 | vorinostat 0.119 | silmitasertib -0.019 | [2] 0.023 | entospletinib 0.007

MALSU1 (UniProt Q96EH3)
inactive: [1] -0.002 | vorinostat -0.015 | silmitasertib -0.025 | [2] -0.005 | entospletinib -0.009

LYRM1 (UniProt O43325)
inactive: [1] 0.164 | vorinostat 0.3 | silmitasertib 0.096 | [2] 0.006

MANEA (UniProt Q5SRI9)
inactive: [1] 0 | vorinostat 0.217 | silmitasertib -0.103 | [2] -0.047 | entospletinib 0.055

MAN1B1 (UniProt Q9UKM7)
inactive: [1] -0.017 | vorinostat 0.051 | silmitasertib 0.02 | [2] -0.044 | entospletinib 0.056

LTF (UniProt P02788)
inactive: [1] -0.034 | vorinostat 0.054 | silmitasertib -0.165 | [2] 0.513 | entospletinib 0.036

MAGEA6 (UniProt P43360)
inactive: [1] 0.008 | vorinostat 0.055 | silmitasertib 0.089 | [2] 0.154 | entospletinib -0.07

MACF1 (UniProt H3BQK9)
inactive: [1] 0.009 | vorinostat -0.09 | silmitasertib 0.02 | [2] 0.001 | entospletinib -0.032

MAGEC1 (UniProt O60732)
inactive: [1] 0.007 | vorinostat -0.091 | silmitasertib 0.082 | [2] 0.025 | entospletinib -0.003

MARCHF6 (UniProt O60337)
inactive: [1] 0 | vorinostat 0.057 | silmitasertib -0.037 | [2] -0.06 | entospletinib -0.028

MARCKS (UniProt P29966)
inactive: [1] -0.04 | vorinostat 0.038 | silmitasertib -0.022 | [2] -0.094 | entospletinib 0.021

LUC7L2 (UniProt Q9Y383)
inactive: [1] -0.004 | vorinostat 0.116 | silmitasertib -0.038 | [2] -0.047 | entospletinib 0.01

MARCKSL1 (UniProt P49006)
inactive: [1] -0.036 | vorinostat 0.154 | silmitasertib -0.021 | [2] 0.009 | entospletinib 0.031

LZTS1 (UniProt Q9Y250)
inactive: [1] 0.04 | vorinostat 0.101 | silmitasertib -0.143 | [2] 0.121 | entospletinib 0.07

MAP1A (UniProt P78559)
inactive: [1] 0.007 | vorinostat 0.026 | silmitasertib -0.017 | [2] 0 | entospletinib 0.001

MAP2K1 (UniProt Q02750)
inactive: [1] -0.005 | vorinostat -0.116 | silmitasertib 0.108 | [2] 0.006 | entospletinib 0.03

MAML2 (UniProt Q8IZL2)
inactive: [1] 0.078 | vorinostat 0.103 | silmitasertib -0.121 | [2] 0.008 | entospletinib -0.161

MAK16 (UniProt Q9BXY0)
inactive: [1] 0.071 | vorinostat 0.094 | silmitasertib -0.024 | [2] 0.022 | entospletinib -0.067

MAP4K2 (UniProt Q12851)
inactive: [1] 0.03 | vorinostat -0.263 | silmitasertib 0.064 | [2] -0.104 | entospletinib 0.15

MAN1A2 (UniProt O60476)
inactive: [1] 0.001 | vorinostat 0.107 | silmitasertib 0.01 | [2] -0.004 | entospletinib -0.038

MAGEC2 (UniProt Q9UBF1)
inactive: [1] -0.005 | vorinostat -0.005 | silmitasertib -0.008 | [2] -0.011 | entospletinib 0.03

LYSMD3 (UniProt Q7Z3D4)
inactive: [1] 0.01 | vorinostat 0.095 | silmitasertib -0.022 | [2] -0.029 | entospletinib 0.028

MAP4 (UniProt E7EVA0)
inactive: [1] -0.044 | vorinostat 0.025 | silmitasertib 0.028 | [2] 0.079 | entospletinib -0.025

M6PR (UniProt P20645)
inactive: [1] 0.026 | vorinostat -0.114 | silmitasertib 0.014 | [2] -0.002 | entospletinib -0.056

MAPK8 isoform 3 (UniProt P45983)
active: vorinostat -0.395
inactive: [1] 0.064 | silmitasertib 0.007 | [2] 0.038 | entospletinib -0.039

MAP1LC3B2 (UniProt A6NCE7)
inactive: [1] 0.007 | vorinostat 0.135 | silmitasertib 0.016 | [2] -0.02 | entospletinib 0.017

LYSMD2 (UniProt Q8IV50)
inactive: [1] 0.007 | vorinostat -0.006 | silmitasertib 0.007 | [2] -0.06 | entospletinib 0.007

MAML1 (UniProt Q92585)
inactive: [1] -0.258 | vorinostat -0.015 | silmitasertib -0.042 | [2] 0.038 | entospletinib -0.003

LYZ (UniProt P61626)
inactive: [1] -0.068 | vorinostat 0.12 | silmitasertib -0.099 | [2] 0.156 | entospletinib 0.102

MAPK3 (UniProt P27361)
inactive: [1] -0.016 | vorinostat -0.005 | silmitasertib 0.02 | [2] 0.038 | entospletinib -0.013

Quoted from the results shown (11 entries):
MAP2K1 (UniProt Q02750)
inactive: [1] -0.005 | vorinostat -0.116 | silmitasertib 0.108 | [2] 0.006 | entospletinib 0.03

MAML2 (UniProt Q8IZL2)
inactive: [1] 0.078 | vorinostat 0.103 | silmitasertib -0.121 | [2] 0.008 | entospletinib -0.161

MAK16 (UniProt Q9BXY0)
inactive: [1] 0.071 | vorinostat 0.094 | silmitasertib -0.024 | [2] 0.022 | entospletinib -0.067

MAP4K2 (UniProt Q12851)
inactive: [1] 0.03 | vorinostat -0.263 | silmitasertib 0.064 | [2] -0.104 | entospletinib 0.15

MAN1A2 (UniProt O60476)
inactive: [1] 0.001 | vorinostat 0.107 | silmitasertib 0.01 | [2] -0.004 | entospletinib -0.038

MAGEC2 (UniProt Q9UBF1)
inactive: [1] -0.005 | vorinostat -0.005 | silmitasertib -0.008 | [2] -0.011 | entospletinib 0.03

LYSMD3 (UniProt Q7Z3D4)
inactive: [1] 0.01 | vorinostat 0.095 | silmitasertib -0.022 | [2] -0.029 | entospletinib 0.028

MAP4 (UniProt E7EVA0)
inactive: [1] -0.044 | vorinostat 0.025 | silmitasertib 0.028 | [2] 0.079 | entospletinib -0.025

M6PR (UniProt P20645)
inactive: [1] 0.026 | vorinostat -0.114 | silmitasertib 0.014 | [2] -0.002 | entospletinib -0.056

MAPK8 isoform 3 (UniProt P45983)
active: vorinostat -0.395
inactive: [1] 0.064 | silmitasertib 0.007 | [2] 0.038 | entospletinib -0.039

MAP1LC3B2 (UniProt A6NCE7)
inactive: [1] 0.007 | vorinostat 0.135 | silmitasertib 0.016 | [2] -0.02 | entospletinib 0.017

Next part:

MARK1 (UniProt Q9P0L2)
active: silmitasertib 0.485
inactive: [1] 0.017 | vorinostat -0.225 | [2] -0.059 | entospletinib 0.049

MAP1S (UniProt Q66K74)
active: vorinostat -0.242
inactive: [1] 0.006 | silmitasertib -0.004 | [2] -0.025 | entospletinib 0.01

LUC7L3 (UniProt O95232)
inactive: [1] 0.031 | vorinostat 0.062 | silmitasertib -0.076 | [2] -0.034 | entospletinib 0.005

MAPK14 isoform 2 (UniProt Q16539)
inactive: [1] -0.06 | vorinostat -0.328 | silmitasertib 0.291 | [2] -0.092 | entospletinib -0.015

MAST4 (UniProt O15021)
inactive: [1] -0.073 | vorinostat -0.381 | silmitasertib 0.281 | [2] -0.025 | entospletinib 0.018
